{
  "source": "PubChem BioAssay AID540256",
  "about": "(National Center for Advancing Translational Sciences (NCATS), 2011)",
  "note": "The whole screen tested about 300,000 compounds, of which about 3,700 (1.2%) were called active. Inconclusive results, whose numbers are uncertain, are shown with a selection of clear calls. Calls come from the whole dose curve; tested in HEK293 cells. Potencies of inconclusive entries are doubtful fits and often do not repeat. % is set by controls: 0 for no effect and ±100 for the full control effect; potency is the fitted concentration of half-maximal effect.",
  "data": [
    {"experiment": "qHTS for Inhibitors of binding or entry into cells for Lassa Virus; note: nearly all actives have a fitted effect of over 50% in size", "conditions": "Lassa virus pseudotype entry inhibition, cell reporter; activity change, negative = inhibition: at 37.9 µM (top of the series) unless noted", "values": [
      {"smiles": "Cc1ccsc1C(=O)Nc1nnc(-c2ccco2)o1", "activity change, negative = inhibition": "inactive: -2.94%"},
      {"smiles": "O=C(Nc1ccc(Cl)cc1)c1ccc2nsnc2c1", "Potency": "inconclusive: 3.55 µM [activator, single point]"},
      {"smiles": "Cc1cc(/C=C2/NC(=O)NC2=O)c(C)n1-c1ccc(N2CCOCC2)cc1", "Potency": "inconclusive: 0.316 µM [inhibitor, full curve, poor fit]"},
      {"smiles": "O=C(c1ccc2ccccc2c1)N1CCN(S(=O)(=O)/C=C/c2ccccc2)CC1", "Potency": "inconclusive: 12.6 µM [inhibitor, partial curve, poor fit]"},
      {"smiles": "COc1ccc(NC(=O)NC2CCCc3ccccc32)cc1", "note": "(stereo not given)", "Potency": "inconclusive: 35.5 µM [inhibitor, single point]"},
      {"smiles": "Cc1nc(Cl)sc1C(=O)Nc1ccccc1", "Potency": "inconclusive: 28.2 µM [activator, single point]"},
      {"smiles": "O=C(O)CSc1nnc(-c2cccnc2)n1Cc1ccccc1", "Potency": "inconclusive: 0.103 µM [inhibitor, full curve, poor fit]"},
      {"smiles": "Cc1ccc(NCCN(C)C)c2c(=O)c3cc(O)ccc3sc12", "Potency": "active: 3.98 µM"},
      {"smiles": "O=C(c1ccco1)N1CCN(c2ncnc3c2oc2ccccc23)CC1", "Potency": "inconclusive: 32.6 µM [inhibitor, single point]"},
      {"smiles": "COCCOc1cc2ncnc(N3CCC(C(=O)O)CC3)c2cc1OCCOC", "Potency": "inconclusive: 6.31 µM [inhibitor, single point]"},
      {"smiles": "COc1cccc(-c2cc(C(F)(F)F)n3ncc(C(=O)OC(C)C)c3n2)c1", "activity change, negative = inhibition": "inactive: -4.62% [at 46.1 µM]"},
      {"smiles": "CSc1nc2c(c(=O)n1-c1ccc(C)cc1)SCC2", "activity change, negative = inhibition": "inactive: -13.9%"},
      {"smiles": "O=C1CSC2(C(=O)N(Cc3cccc(C(F)(F)F)c3)c3ccccc32)N1c1ccc(F)c(F)c1", "note": "(stereo not given)", "activity change, negative = inhibition": "inactive: -15.6% [at 46.1 µM]"},
      {"smiles": "N#Cc1ccccc1CSc1nnc(-c2ccc(Br)cc2)o1", "Potency": "inconclusive: 2 µM [activator, partial curve, poor fit]"},
      {"smiles": "NC(=O)c1ccc(NC(=O)COC(=O)c2c[nH]c3ccccc23)cc1", "Potency": "inconclusive: 35.5 µM [inhibitor, single point]"},
      {"smiles": "Cc1nc(-c2cccc3ccccc23)ccc1C(=O)O", "Potency": "inconclusive: 35.5 µM [activator, single point]"},
      {"smiles": "O=C(Cn1cnc2sc(-c3ccccc3)cc2c1=O)NCc1ccco1", "activity change, negative = inhibition": "inactive: -9.84%"},
      {"smiles": "CCOC(=O)N/N=C/c1c(C)nn(-c2ccccc2Cl)c1Cl", "Potency": "inconclusive: 15.8 µM [inhibitor, single point]"},
      {"smiles": "O=C(CSc1ccccc1C(=O)O)NCc1ccc(Cl)cc1", "Potency": "inconclusive: 0.355 µM [inhibitor, partial curve, poor fit]"},
      {"smiles": "Cc1ccc2c(CC(=O)N(Cc3ccc(N(C)C)cc3)Cc3ccco3)coc2c1C", "Potency": "inconclusive: 6.31 µM [inhibitor, full curve, poor fit]"}
    ]}
  ]
}
